In PMC6134095:
Results are given in words; binding and its absence hold for the method and conditions named.

By UniProt entry, the sequences of proteins in these tests, tags left out. Residues count along the entry.
UniProt P06136, residues 58-276: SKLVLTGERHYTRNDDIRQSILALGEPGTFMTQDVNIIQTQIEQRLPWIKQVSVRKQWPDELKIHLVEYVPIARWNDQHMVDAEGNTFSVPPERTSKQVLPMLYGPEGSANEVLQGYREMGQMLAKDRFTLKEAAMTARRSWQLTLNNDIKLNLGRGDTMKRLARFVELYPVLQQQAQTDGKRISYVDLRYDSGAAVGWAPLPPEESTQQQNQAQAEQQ

Key:
[1] = target: FtsQ (58–276), periplasmic domain of E. coli FtsQ (Escherichia coli strain K-12) (UniProt P06136); assay: AUC; velocity sedimentation, FtsB (22–103) and FtsQ (58–276) alone or mixed at 1 mg/ml; 50,000 rpm, 20°C; 25 mM Tris pH 7.4, 100 mM NaCl, 1 mM DTT; both purified
[2] = target: FtsQ (58–276), periplasmic domain of E. coli FtsQ (Escherichia coli strain K-12) (UniProt P06136); assay: SEC-MALS; FtsB (22–103) and FtsQ (58–276) singly and in a complex; Superdex S-75 10/300; 25 mM Tris pH 7.4, 100 mM NaCl, 1 mM DTT; both purified

binding [1]: no binding (tested: 1 mg/ml)
binding [2]: no binding
Substance: FtsQ (58–276), periplasmic domain of E. coli FtsQ (from UniProt P06136 58-276) (domain or fragment)
